Construct, isoform or probe ends are uncertain for at least one entry. At least one verdict rests on a figure or table, not on a statement of the authors. Protein sequences can lack the tags named with them.
Molecular target: T1, SMCHD1 hinge domain (UniProt A6NHR9)
T1 sequence (looked up): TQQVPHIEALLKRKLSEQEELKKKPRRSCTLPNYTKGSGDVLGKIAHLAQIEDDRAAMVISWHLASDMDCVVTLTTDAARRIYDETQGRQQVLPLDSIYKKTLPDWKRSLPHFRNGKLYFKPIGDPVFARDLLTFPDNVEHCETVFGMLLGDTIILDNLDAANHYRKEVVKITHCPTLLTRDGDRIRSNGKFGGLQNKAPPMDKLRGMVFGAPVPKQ
Experiment: EMSA
Details: 0.5-50 uM protein, 2 mM Mg2+; residues 1682-1898

“CCTAGGCTACACCTACTCTTTGTAAGAATTAAGCTTC (double strand) [FAM 37 bp duplex]”: binds.

— doi:10.1101/2025.07.08.663435 (bioRxiv, 2025)
